Reference: patent US20160229920A1
These are yes or no findings as the source states them, for the method shown. Some results given as binding are weak or reduced against the parent protein; the word gives no strength.

Sequences of proteins named here, by UniProt entry; tags and fusion partners are left off. A change or cut given only in a name is not applied to a line headed by its entry. Residues count along the entry.
UniProt P21860: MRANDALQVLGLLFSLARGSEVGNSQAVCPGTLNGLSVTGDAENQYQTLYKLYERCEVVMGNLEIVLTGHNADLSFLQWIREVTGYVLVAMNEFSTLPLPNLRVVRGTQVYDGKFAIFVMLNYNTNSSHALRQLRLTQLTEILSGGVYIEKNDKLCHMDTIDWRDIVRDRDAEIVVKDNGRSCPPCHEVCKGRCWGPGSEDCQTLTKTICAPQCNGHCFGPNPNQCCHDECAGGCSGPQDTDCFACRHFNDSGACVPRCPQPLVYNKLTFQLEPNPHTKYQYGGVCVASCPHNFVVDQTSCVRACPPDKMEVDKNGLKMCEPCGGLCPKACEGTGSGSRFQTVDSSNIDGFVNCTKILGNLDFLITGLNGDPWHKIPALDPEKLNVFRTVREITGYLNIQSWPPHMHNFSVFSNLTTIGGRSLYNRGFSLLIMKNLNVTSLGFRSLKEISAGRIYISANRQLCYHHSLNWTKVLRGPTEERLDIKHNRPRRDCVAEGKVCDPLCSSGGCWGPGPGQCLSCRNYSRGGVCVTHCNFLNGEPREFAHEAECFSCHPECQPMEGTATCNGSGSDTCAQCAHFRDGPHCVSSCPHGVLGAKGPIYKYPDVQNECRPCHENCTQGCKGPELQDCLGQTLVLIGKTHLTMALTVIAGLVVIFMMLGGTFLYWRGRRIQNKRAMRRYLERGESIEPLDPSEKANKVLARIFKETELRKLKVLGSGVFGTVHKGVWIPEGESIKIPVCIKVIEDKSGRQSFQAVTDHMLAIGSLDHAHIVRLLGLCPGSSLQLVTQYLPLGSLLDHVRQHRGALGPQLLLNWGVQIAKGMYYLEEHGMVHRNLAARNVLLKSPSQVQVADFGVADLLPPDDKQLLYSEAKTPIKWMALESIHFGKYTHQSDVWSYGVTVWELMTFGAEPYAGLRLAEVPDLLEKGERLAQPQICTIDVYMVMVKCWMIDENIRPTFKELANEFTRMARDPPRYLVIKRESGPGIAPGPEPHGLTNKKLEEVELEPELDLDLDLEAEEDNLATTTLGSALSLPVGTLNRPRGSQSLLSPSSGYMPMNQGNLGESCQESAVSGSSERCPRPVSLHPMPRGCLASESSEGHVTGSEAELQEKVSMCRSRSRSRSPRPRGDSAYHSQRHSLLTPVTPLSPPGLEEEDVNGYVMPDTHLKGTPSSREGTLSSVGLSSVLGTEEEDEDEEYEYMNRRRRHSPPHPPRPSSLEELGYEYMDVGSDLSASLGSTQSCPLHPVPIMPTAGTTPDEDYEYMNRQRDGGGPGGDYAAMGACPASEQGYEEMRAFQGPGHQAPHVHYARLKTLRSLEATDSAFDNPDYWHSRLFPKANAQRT
HER3 on the plasma membrane of SK-BR-3 and BT-474 breast cancer cells: residues 20-1342 of P21860
recombinant HER3 (immobilized): residues 20-643 of P21860

Assays:
[1] = target: HER3 on the plasma membrane of SK-BR-3 and BT-474 breast cancer cells (human) (UniProt P21860); test: flow cytometry on SK-BR-3 and BT-474 cells, 50 nM labeled antibody
[2] = target: recombinant HER3 (immobilized) (UniProt P21860); test: SPR (BIAcore), antigen immobilized; data not shown
[3] = target: HER3 on the plasma membrane of SK-BR-3 and BT-474 breast cancer cells (human) (UniProt P21860); test: flow cytometry, 50 nM Alexa 647-labeled Ab6 on SK-BR-3 and BT-474 cells after 24 h medium, DMSO or 1 uM lapatinib; single concentration
[4] = target: HER3 on the plasma membrane of SK-BR-3 and BT-474 breast cancer cells (human) (UniProt P21860); test: fluorescence microscopy of SK-BR-3 cells pulsed with 50 nM antibody for 5 min at 37 C and chased 0, 10 or 20 min; detection with Alexa 555 anti-human IgG, co-stain EEA-1
[5] = target: HER3 on the plasma membrane of SK-BR-3 and BT-474 breast cancer cells (human) (UniProt P21860); test: fluorescence microscopy of SK-BR-3 cells treated with 50 nM antibody for 15 min at 37 C and chased 45 min; detection with Alexa 555 anti-human IgG, co-stain LAMP-1

Measured: binding

B1: anti-HER3 antibody Ab6 (antibody, human IgG1, V domains shown)
VH: QVQLLESGGGLVQPGGSLRLSCAASGFTFSHYVMAWVRQAPGKGLEWVSSISSSGGWTLYADSVKGRFTISRDNSKNTLYLQMNSLRAEDTAVYYCTRGLKMATIFDYWGQGTLVTVSS
VL: DIQLTQPASVSGSPGQSITISCTGTSSDVGSYNVVSWYQQHPGKAPKLIIYEVSQRPSGVSNRFSGSKSGNTASLTISGLQTEDEADYYCCSYAGSSIFVIFGGGTKVTVL
binds: [1] | [2] | [3] | [4] | [5]
